# In doi:10.1101/287508:
# Results are given in words; binding and its absence hold for the method and conditions named. In cells and extracts the contact can be indirect. For part of these data: Binding calls can cover weak binding; strength is not graded here.
# Key:
# Assay in all cases: pull-down
# [1] = target: GST-LIMK1 ΔLIM1 (lacking residues 1–76) (mouse) (UniProt P53668)
# [2] = target: GST-LIMK1 ΔLIM1, 2 (lacking residues 1–138) (mouse) (UniProt P53668)
# [3] = target: GST-LIMK1 ΔKinase (lacking residues 301–648) (mouse) (UniProt P53668)
substance,measurement,setting,value
Flag-tagged HopQ1 (from UniProt Q888Y7 1-447),binding,[1],binds
same,binding,[2],no binding
same,binding,[3],binds
